Test results published in paper PMC4872784 (Oncotarget, 2016).

Test system: MOLM14 cells
Test: alamarBlue cytotoxicity assay, 48h
Type: cell-based
Settings: Homo sapiens, MOLM-14, MOLM14 (AML), RPMI + 10% FBS
Description: Following subtraction of background fluorescence from all wells, fluorescence of drug-treated cells was normalized to that of vehicle (<0.5% DMSO)-treated cells to determine the effect of each drug concentration on viability. Each cell line was tested in triplicate and in at least three independent experiments. IC50 (concentration that inhibits cell growth by 50%) values were calculated using CompuSyn software (ComboSyn, Paramus, NJ). […] In addition several cell lines were initially cultured and tested in alternative media (Supplementary Table S2). […] Colony counts were normalized to vehicle-treated controls (100%). Three independent experiments were performed.
In most experiments, cytotoxicity was assessed using alamarBlue assays (Life Technologies, Grand Island, NY). In experiments using NAC and DFO, which can interfere with alamarBlue assay performance, Trypan Blue dye exclusion was used instead. […]
experiments performed in triplicate. […] Age refers to age […]
at the time of leukemia diagnosis of the patient from whom the cell line was derived. (–) Indicates information unavailable.
*Cell lines with FLT3/ITD mutations.
*The MV-4–11 cell line was derived from a patient with a biphenotypic B-myelomonocytic leukemia; K562 was derived […]
measured via alamarBlue assay. […]

Compound: CO[C@@H]1[C@H](N(C)C(=O)c2ccccc2)C[C@H]2O[C@]1(C)n1c3ccccc3c3c4c(c5c6ccccc6n2c5c31)C(=O)NC4 [MID, midostaurin]
- IC50: 11 nM
